Consider two substances from patent US9629918B2 (PURDUE RESEARCH FOUNDATION, priority 2012, dated 2017).

The data set is described as follows: general procedure: Fmoc solid-phase peptide synthesis; Wang resin loaded with Fmoc-L-Cys(Trt)-OH; HOBT/HBTU. The conditions noted are these: conjugation step.

Take “DMTHF-EC-119-Desacetylvinblastine Hydrazide”: the conjugation yield stood at 45%.

DMTHF-EC-119-Tubulysin B Hydrazide yielded a conjugation yield of 55%.
